Patent US9173841B2, “Polymer nanoparticle injection formulation composition containing rapamycin with improved water solubility, preparation method thereof, and anticancer composition for combined use with radiotherapy” (SAMYANG BIOPHARMACEUTICALS CORPORATION, priority 2009, dated 2015)
For at least one compound, name, drawing or mass did not settle the structure.

Tested on: Lung cancer A549 and NCI-H460 cell lines, and breast cancer MDA-MB-231 and MCF7 cell lines
Assay: Experiment 3: in vitro anticancer activity, colony formation / surviving fraction
Format: cell-based
Details: 10, 100 and 500 nM, 14 days culture

## CO[C@H]1C[C@@H]2CC[C@@H](C)[C@@](O)(O2)C(=O)C(=O)N2CCCC[C@H]2C(=O)O[C@H]([C@H](C)C[C@@H]2CC[C@@H](O)[C@H](OC)C2)CC(=O)[C@H](C)/C=C(\C)[C@@H](O)[C@@H](OC)C(=O)[C@H](C)C[C@H](C)/C=C/C=C/C=C/1C [rapamycin, Rapamycin]
  proliferation ability of cells (colonies, surviving fraction): remarkably decreased the proliferation ability of cells
